Test results: US20180057462A1, “Substituted 2-difluoromethyl-nicotin(thio)carboxanilide derivatives and their use as fungicides” (BAYER CROPSCIENCE AKTIENGESELLSCHAFT, priority 2015, published 2018)
Some results were stated once for a whole list of compounds, not compound by compound.

Experiments:
Puccinia recondita = assay: In vivo preventive test on Puccinia recondita (brown rust on wheat); settings: 100 ppm of active ingredient, wheat plants sprayed, evaluated 11 days after inoculation, 100% = no disease
Uromyces appendiculatus = assay: In vivo preventive test on Uromyces appendiculatus (bean rust); settings: 100 ppm of active ingredient, bean plants sprayed, evaluated 11 days after inoculation, 100% = no disease
Phakopsora pachyrhizi = assay: In vivo preventive test on Phakopsora (soybeans); settings: 10 ppm of active ingredient, soybean plants sprayed, evaluated 7 days after inoculation, 100% = no disease

SMILES	efficacy (Puccinia recondita)	efficacy (Uromyces appendiculatus)	efficacy (Phakopsora pachyrhizi)
O=C(Nc1cccc(-c2ccccc2)c1Cl)c1cccnc1C(F)F [Example 3]	at least 70%	at least 70%	–
O=C(Nc1cccc(-c2cccc(Cl)c2)c1Cl)c1cccnc1C(F)F [Example 8]	–	at least 70%	–
Cc1c(NC(=O)c2cccnc2C(F)F)cccc1OC1CCCCC1 [Example 16]	at least 70%	at least 70%	–
CCCOCC(C)Oc1cccc(NC(=O)c2cccnc2C(F)F)c1C (stereo not shown) [Example 22]	at least 70%	at least 70%	–
Cc1c(NC(=O)c2cccnc2C(F)F)cccc1OC(C)C1CCOC1 (stereo not shown) [Example 27]	at least 70%	at least 70%	–
CO/N=C\C(C)Oc1cccc(NC(=O)c2cccnc2C(F)F)c1C (stereo not shown) [Example 28]	at least 70%	at least 70%	–
Cc1c(NC(=O)c2cccnc2C(F)F)cccc1OCc1cccc(Br)c1 [Example 54]	at least 70%	–	–
Cc1c(NC(=O)c2cccnc2C(F)F)cccc1OC(C)c1ccccc1C(F)(F)F (stereo not shown) [Example 55]	at least 70%	–	–
Cc1c(NC(=O)c2cccnc2C(F)F)cccc1OC(C)c1cc(Cl)ccc1Cl (stereo not shown) [Example 56]	at least 70%	at least 70%	–
Cc1c(NC(=O)c2cccnc2C(F)F)cccc1OC(C)c1ccccc1F (stereo not shown) [Example 57]	at least 70%	at least 70%	–
Cc1c(NC(=O)c2cccnc2C(F)F)cccc1OCCc1ccc(C(F)(F)F)cc1 [Example 58]	at least 70%	at least 70%	–
Cc1c(NC(=O)c2cccnc2C(F)F)cccc1OCCc1cccc(C(F)(F)F)c1 [Example 60]	at least 70%	at least 70%	at least 70%
Cc1c(NC(=O)c2cccnc2C(F)F)cccc1OCCc1cccc(F)c1 [Example 61]	at least 70%	at least 70%	–
Cc1c(NC(=O)c2cccnc2C(F)F)cccc1OCCc1ccccc1F [Example 62]	at least 70%	at least 70%	–
Cc1c(NC(=O)c2cccnc2C(F)F)cccc1OCCc1ccc(F)cc1 [Example 63]	at least 70%	at least 70%	at least 70%
Cc1c(NC(=O)c2cccnc2C(F)F)cccc1OCCc1cccc(Cl)c1 [Example 65]	at least 70%	at least 70%	–
Cc1c(NC(=O)c2cccnc2C(F)F)cccc1OC(C)Cc1ccc(Cl)cc1 (stereo not shown) [Example 67]	at least 70%	at least 70%	at least 70%
Cc1c(NC(=O)c2cccnc2C(F)F)cccc1OC(C)Cc1cccc(Cl)c1 (stereo not shown) [Example 68]	at least 70%	at least 70%	at least 70%
Cc1c(NC(=O)c2cccnc2C(F)F)cccc1OC(C)Cc1ccccc1Cl (stereo not shown) [Example 69]	at least 70%	at least 70%	at least 70%
Cc1c(NC(=O)c2cccnc2C(F)F)cccc1OC(C)CSc1ccccc1 (stereo not shown) [Example 70]	at least 70%	at least 70%	–
Cc1c(NC(=O)c2cccnc2C(F)F)cccc1OC(C)Cc1cccs1 (stereo not shown) [Example 72]	at least 70%	at least 70%	at least 70%

SMILES	efficacy (Puccinia recondita)	efficacy (Uromyces appendiculatus)	efficacy (Phakopsora pachyrhizi)
Cc1c(NC(=O)c2cccnc2C(F)F)cccc1OCc1ccc(C(F)(F)F)cc1 [Example 73]	at least 70%	at least 70%	–
Cc1c(CCC(C)(C)C)cccc1NC(=O)c1cccnc1C(F)F [Example 74]	at least 70%	at least 70%	–
Cc1c(NC(=O)c2cccnc2C(F)F)cccc1OC1CCCC1 [Example 75]	at least 70%	at least 70%	–
Cc1c(NC(=O)c2cccnc2C(F)F)cccc1OCC=C(Cl)Cl [Example 76]	at least 70%	at least 70%	–
Cc1c(NC(=O)c2cccnc2C(F)F)cccc1OCC1CCCCC1 [Example 77]	at least 70%	–	–
Cc1c(NC(=O)c2cccnc2C(F)F)cccc1OCCC(C)(C)C [Example 78]	at least 70%	at least 70%	–
CCCC(C)Oc1cccc(NC(=O)c2cccnc2C(F)F)c1C (stereo not shown) [Example 79, 2-(difluoromethyl)-N-[2-methyl-3-(pentan-2-yloxy)phenyl]nicotinamide]	at least 70%	at least 70%	at least 70%
Cc1c(NC(=O)c2cccnc2C(F)F)cccc1C1CCCCO1 (stereo not shown) [Example 80]	at least 70%	at least 70%	–
Cc1c(NC(=O)c2cccnc2C(F)F)cccc1C1CC2CCC1C2 (stereo not shown) [Example 81]	at least 70%	at least 70%	–
Cc1c(NC(=O)c2cccnc2C(F)F)cccc1C1CCCO1 (stereo not shown) [Example 82]	at least 70%	–	–
CCCC(CC)Oc1cccc(NC(=O)c2cccnc2C(F)F)c1C (stereo not shown) [Example 83]	at least 70%	at least 70%	at least 70%
Cc1c(NC(=O)c2cccnc2C(F)F)cccc1OC(C)CC(C)(C)C (stereo not shown) [Example 84]	at least 70%	at least 70%	at least 70%
Cc1c(NC(=O)c2cccnc2C(F)F)cccc1OC(C)C1CCCC1 (stereo not shown) [Example 85]	at least 70%	at least 70%	at least 70%
CCCCC(C)Oc1cccc(NC(=O)c2cccnc2C(F)F)c1C (stereo not shown) [Example 86]	at least 70%	at least 70%	at least 70%
Cc1c(NC(=O)c2cccnc2C(F)F)cccc1OC(C)CCC(C)C (stereo not shown) [Example 87]	at least 70%	at least 70%	at least 70%
Cc1c(NC(=O)c2cccnc2C(F)F)cccc1OC(C)c1ccccc1 (stereo not shown) [Example 89]	at least 70%	at least 70%	at least 70%
O=C(Nc1cccc(OC2CCCC2)c1C(F)(F)F)c1cccnc1C(F)F [Example 91]	at least 70%	at least 70%	–
CCC(CC)Oc1cccc(NC(=O)c2cccnc2C(F)F)c1C(F)(F)F [Example 92]	at least 70%	at least 70%	at least 70%
CCCC(CC)Oc1cccc(NC(=O)c2cccnc2C(F)F)c1C(F)(F)F (stereo not shown) [Example 93]	at least 70%	at least 70%	–
CCC(C)Oc1cccc(NC(=O)c2cccnc2C(F)F)c1C(F)(F)F (stereo not shown) [Example 94]	at least 70%	at least 70%	at least 70%
CCC(C)Oc1cccc(NC(=O)c2cc(C)cnc2C(F)F)c1C(F)(F)F (stereo not shown) [Example 95]	at least 70%	–	–

SMILES	efficacy (Puccinia recondita)	efficacy (Uromyces appendiculatus)	efficacy (Phakopsora pachyrhizi)
CCC(C)Oc1cccc(NC(=O)c2ccc(Cl)nc2C(F)F)c1C(F)(F)F (stereo not shown) [Example 96]	at least 70%	–	–
Cc1cnc(C(F)F)c(C(=O)Nc2cccc(OC(C)C)c2C(F)(F)F)c1 [Example 98]	at least 70%	–	–
CC(C)Oc1cccc(NC(=O)c2cccnc2C(F)F)c1C(F)(F)F [Example 99]	at least 70%	at least 70%	–
O=C(Nc1cccc(OCc2ccccc2)c1C(F)(F)F)c1cccnc1C(F)F [Example 100]	at least 70%	–	–
CC(Oc1cccc(NC(=O)c2cccnc2C(F)F)c1C(F)(F)F)c1ccccc1 (stereo not shown) [Example 101]	at least 70%	–	–
CCC(CC)Nc1cccc(NC(=O)c2cccnc2C(F)F)c1C [Example 106]	–	at least 70%	–
Cc1c(NC(=O)c2cccnc2C(F)F)cccc1N(C)C1CCCC1 [Example 109]	–	at least 70%	–
Cc1c(NC(=O)c2cccnc2C(F)F)cccc1-c1cncc(C(F)(F)F)c1 [Example 110, 2-(difluoromethyl)-N-{2-methyl-3-[5-(trifluoromethyl)pyridin-3-yl]phenyl}nicotinamide]	at least 70%	at least 70%	–
Cc1ccc(-c2cccc(NC(=O)c3cccnc3C(F)F)c2C)s1 [Example 111]	at least 70%	at least 70%	–
Cc1nc(C)c(-c2cccc(NC(=O)c3cccnc3C(F)F)c2C)s1 [Example 112]	at least 70%	–	–
Cc1c(NC(=O)c2cccnc2C(F)F)cccc1-c1cnn(C(C)C)c1 [Example 113]	at least 70%	–	–
Cc1c(NC(=O)c2cccnc2C(F)F)cccc1-c1csc(C(C)C)n1 [Example 114]	at least 70%	at least 70%	–
Cc1c(NC(=O)c2cccnc2C(F)F)cccc1OC(C)c1ccc(Cl)cc1Cl (stereo not shown) [Example 115]	at least 70%	at least 70%	–
Cc1c(NC(=O)c2cccnc2C(F)F)cccc1C1CCCCC1(C)C (stereo not shown) [Example 116]	at least 70%	at least 70%	at least 70%
Cc1c(NC(=O)c2cccnc2C(F)F)cccc1OC(C)(C)C(C)C [Example 117]	at least 70%	at least 70%	–
CCOc1cccc(NC(=O)c2cccnc2C(F)F)c1C [Example 118]	at least 70%	at least 70%	–
Cc1c(NC(=O)c2cccnc2C(F)F)cccc1OCC(F)(F)F [Example 119]	at least 70%	at least 70%	–
Cc1c(NC(=O)c2cccnc2C(F)F)cccc1OCCC(F)(F)F [Example 120]	at least 70%	at least 70%	–
Cc1c(NC(=O)c2cccnc2C(F)F)cccc1C1CC1 [Example 122]	at least 70%	at least 70%	–
